Measured values from US12630579B2, “Proteolysis targeting compound with tissue targeting capability and use thereof” (TAI BI DI PHARMACEUTICAL TECHNOLOGY (SHIJIAZHUANG) CO. LTD, priority 2020, dated 2026).
Part of at least one peptide drawing is inferred or uncertain, most often the ends.

Columns and labels:
[1] = tested on: Liver cancer cells (HUH-7); test: Cell growth inhibition test (cck-8); assay type: cell-based; conditions: HUH-7, 72 hours
Experimental: Liver cancer cells (HUH-7) were seeded in a 96-well plate at a concentration of 2*10^4 cells/mL, 100 uL per well, and cultured overnight.
The next day, the cells were observed microscope to ensure adherence. Compound solutions were prepared as follows: WG compounds of present application and corresponding compounds of structure A were respectively weighed, prepared with pure DMSO into mother solutions of high concentration, then gradiently diluted to obtain compound solutions of 10 nM/100 nM/300 nM/1000 nM/3000 nM in 10% DMSO, and shaken to mix well.
Positive drug solutions in the control group were prepared with the same solvent and method, and only a single dosage was required. In this test, the positive drug solution is 1 uM lenvatinib.
After solution preparation was completed, 10 uL of compound solutions were added into each well of the 96-well plate, three duplicates for each dosage. The plate was gently shaken to allow the cells to repeatedly contact with the compound solutions, and then the plate was placed in an incubator to culture for 72 hours. 72 hours later, the plate was taken out and 10 uL cck-8 reagent was added into each well and shaken gently to mix well. Then the plate was placed in an incubator to culture for two hours. Two hours later, the plate was taken out and analyzed with a microplate reader to measure the absorbance of each well at a wavelength of 450 nm. […]

[2] = tested on: target protein in liver cancer cells (HUH-7); test: Proteolysis test (Western blot of target protein); assay type: cell-based; conditions: HUH-7, 24 hours
Experimental: Liver cancer cells (HUH-7) were seeded in a 6-well plate at a concentration of 4*10^5 cells/mL, 2 mL per well, and cultured overnight until the cells were adherent to the wall.
The next day, compound solutions were prepared as follows: WG compounds of present application and corresponding compounds of structure A were respectively weighed, prepared with pure DMSO into mother solutions of high concentration, then gradiently diluted to obtain compound solutions of 10 nM/30 nM/100 nM/300 nM/1000 nM/3000 nM in 10% DMSO, and shaken to mix well. 200 uL of compound solutions were added to each well with a ratio of compound solution to culture medium at 1:10.
After culture for 24 hours, the culture medium was sucked out with a pipette, and then the wells were washed 3 times with PBS. Solutions in the wells were thoroughly sucked up, and 150 uL RIPA Lysis Buffer was added into each well. Then the culture was continued on ice for 30 min to lyse the cells.
Lysates were collected and centrifuged at 16000 rpm for 10 minutes. […]
The results were analyzed with ImageJ. Blackness of each strip was measured and the protein was quantified for comparison analysis according to formula: Protein content=blackness value of the experimental group/blackness value of the blank control group.

Compound | IC50 [1] | DC50 [2]
COc1cc2c(Oc3ccc(NC(=O)C4(C(=O)Nc5ccc(F)cc5)CC4)cc3)ccnc2cc1OCCCOCCCOCCC(=O)N[C@H](C(=O)N1C[C@H](OP(=O)(O)OCCCCCCCCCC(=O)NC(COCCC(=O)NCCCNC(=O)CCCCOC2OC(CO)C(O)C(O)C2NC(C)=O)(COCCC(=O)NCCCNC(=O)CCCCOC2OC(CO)C(O)C(O)C2NC(C)=O)COCCC(=O)NCCCNC(=O)CCCCOC2OC(CO)C(O)C(O)C2NC(C)=O)C[C@H]1C(=O)NCc1ccc(-c2scnc2C)cc1)C(C)(C)C (stereo partly shown) [WG-4(00500639)] | 15 nM | 38.1 nM
COc1cc2c(Oc3ccc(NC(=O)C4(C(=O)Nc5ccc(F)cc5)CC4)cc3F)ccnc2cc1OCCCOCCCOCCC(=O)N[C@H](C(=O)N1C[C@H](OP(=O)(O)OCCCCCCCCCC(=O)NC(COCCC(=O)NCCCNC(=O)CCCCOC2OC(CO)C(O)C(O)C2NC(C)=O)(COCCC(=O)NCCCNC(=O)CCCCOC2OC(CO)C(O)C(O)C2NC(C)=O)COCCC(=O)NCCCNC(=O)CCCCOC2OC(CO)C(O)C(O)C2NC(C)=O)C[C@H]1C(=O)NCc1ccc(-c2scnc2C)cc1)C(C)(C)C (stereo partly shown) [WG-5(00600639)] | 35.3 nM | 12 nM
